# From patent US5922681A, “Endothelin antagonists” (Warner-Lambert Company, priority 1992, dated 1999)
# Some entries share one result that the patent states for a list of compounds. At least one compound was matched to its structure with a doubt left.
# Target: T1, ETB (rat cerebellar membranes) (Rattus norvegicus, UniProt P21451)
# T1 construct: thaw one aliquot of frozen rat cerebellar membranes; from tissue; host or cells: rat cerebellar membranes
# T1 sequence (P21451 27-442): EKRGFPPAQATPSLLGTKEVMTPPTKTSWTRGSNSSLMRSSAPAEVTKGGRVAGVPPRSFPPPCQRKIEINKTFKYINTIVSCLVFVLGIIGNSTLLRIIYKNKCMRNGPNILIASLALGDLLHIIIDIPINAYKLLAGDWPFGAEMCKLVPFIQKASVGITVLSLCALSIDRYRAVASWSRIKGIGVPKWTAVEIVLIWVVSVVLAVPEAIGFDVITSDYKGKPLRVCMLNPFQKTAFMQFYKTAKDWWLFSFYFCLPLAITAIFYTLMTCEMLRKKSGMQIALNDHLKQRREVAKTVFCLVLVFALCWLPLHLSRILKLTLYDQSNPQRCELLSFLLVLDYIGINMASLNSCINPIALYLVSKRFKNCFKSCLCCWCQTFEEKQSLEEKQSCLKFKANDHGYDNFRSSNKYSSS
# Experiment: Endothelin receptor binding assay-B (ERBA-B), [125I]-ET-1 binding in rat cerebellar membranes
# Conditions: ERBA-A versus ERBA-B
# Experimental: The compounds of Formula I are valuable antagonists of endothelin. […] Compounds of Formula I were tested for their ability to inhibit [^125 I]-ET-1([^125 I]-Endothelin-1) binding in a receptor assay according to the following procedures Doherty, A. M., et al, J. Cardiovascul. Pharmacol. 17(Suppl 7):S59-61 (1991) and Doherty, A. M., et al, Bio. Org. Med. Chem. Lett. in press (1992):
# ENDOTHELIN RECEPTOR BINDING ASSAY-B (ERBA-B) [^125 I]-ET-1 BINDING IN RAT CEREBELLAR MEMBRANES
# The tissue is made up of 20 mM tris(hydroxy-methyl)aminomethane hydrochloride (Trizma) buffer, 2 mM ethylenediaminetetra acetate, 100 μM phenylmethylsulfonyl fluoride.
# First, thaw one aliquot of frozen rat cerebellar membranes (2 mg protein in 0.5 mL). Next, add 0.5 mL membrane aliquot to 4.5 mL cold tissue buffer, polytron at 7,500 revolutions per minute for 10 seconds. Finally, dilute tissue suspension 1/100 (0.1 mL suspension+9.9 mL tissue buffer), polytron again, and place ice.
# Medium 199 with Hank's salts plus 25 mM Hepes+1 mg/mL bovine serum albumin.
# Amersham [^125 I]-ET-1 (aliquots of 2×10^6 cpm per […] aliquot of [^125 I]-ET-1 with 5.2 mL dilution buffer, place on ice until use (final concentration will be 20,000 cpm per tube, or 25 pM).
# Add 50 μL each of cold [^125 ]-ET-1 and competing ligand to tubes on ice. Mix in 150 μL of tissue to each tube, vortex briefly, then tap to force all liquids to bottom (total assay volume=250 μL). Then place the tubes in a 37° C. water bath for 2 hours.
# Add 2.5 mL cold wash buffer (50 mM Trizma buffer) to each tube, filter, and then wash tube with additional 2.5 mL wash buffer and add to filter. Finally, wash filters with an additional 2.5 mL of cold wash buffer.
# Count filters for radioactivity in gamma counter.
row,Compound,Selectivity ETA / ETB from Table I
1,"CC(Cc1c[nH]c2ccccc12)(NC(=O)OC1C2CC3CC(C2)CC1C3)C(=O)NC(C=CC(=O)O)Cc1ccccc1 (stereo not drawn) [Compound 6, [R-[R*,S*-(E)]]-4-[[3-(1H-indol-3-yl)-2-methyl-1-oxo-2-[[(tricyclo[3.3.1.1^3,7]dec-2-yloxy)carbonyl]-amino]propyl]amino]-5-phenyl-2-pentenoic acid]",selective for ETB
2,"CC(Cc1c[nH]c2ccccc12)(NC(=O)OC1C2CC3CC(C2)CC1C3)C(=O)NC(CCC(=O)O)Cc1ccccc1 (stereo not drawn) [Compound 7, [R-(R*,S*)]-γ-[[3-(1H-indol-3-yl)-2-methyl-1-oxo-2-[[(tricyclo[3.3.1.1^3,7]dec-2-yloxy)carbonyl]-amino]propyl]amino]benzenepentanoic acid]",selective for ETB
3,"C[C@](Cc1c[nH]c2ccccc12)(NC(=O)OC1C2CC3CC(C2)CC1C3)C(=O)N(CCC(=O)O)CCc1ccccc1 (stereo partly drawn) [Compound 8, (R)-3-[[3-(1H-indol-3-yl) -2-methyl-1-oxo-2-[[(tricyclo[3.3.1.1^3,7]dec-2-yloxy)carbonyl]amino]-propyl](2-phenylethyl)amino]propanoic acid]",selective for ETB
